# Results deposited as PubChem BioAssay AID652259 (Drosophila RNAi Screening Center, 2013)
# Aim: 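Genome-wide hunt for genes that control Wingless pathway activity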 (primary screen)
# System: Drosophila clone 8 imaginal disc epithelial cells
# Reagents: long dsRNA against Drosophila genes
# Conditions: pathway stimulated by co-transfected Wingless expression plasmid
# Read-out: 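Firefly luciferase from a tcf-site Wingless reporter, measured alongside co-transfected Renilla luciferase that tracks transfection; pathway stimulated by a Wingless plasmid; the firefly-to-Renilla ratio is not deposited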
# Scale: firefly reporter light: higher = more Wg reporter light, before normalisation; Renilla control light: higher = more transfected or surviving cells
# Call rule: 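a knock-down is a candidate when at least two out of four statistical tests show it departing from its plate mean; one test alone signals a weak candidate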
# Calls: active = candidate regulator (raises or lowers reporter); inactive = not a candidate
# The deposit covers about 22,000 reagents; shown is a random part of those that have a named target and a result. Over the whole deposit, 233 (1.1%) were called active. 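Light values are raw, unnormalised plate reads; the ratio scores behind the reporter calls were not deposited.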 A plus sign joins genes that one reagent is predicted to hit. Reagent sequences are not shown. The record does not give: the amount of reagent, the time to read-out, the dose of the treatment.
predicted target,dsRNA,"firefly reporter light, replicate 1","firefly reporter light, replicate 2","Renilla control light, replicate 1","Renilla control light, replicate 2",Outcome
PH4alphaNE3,DRSC16541,3338,7968,1235,2653,inactive
CG13930,DRSC08399,7738,,2505,,inactive
Cpr97Ea,DRSC15974,9895,,3078,,inactive
CG7352,DRSC16233,14578,,3113,,inactive
cona,DRSC16281,17219,,2405,,inactive
sns,DRSC06423,2042,7196,212,620,inactive
sns,DRSC07687,5898,11203,1335,4144,inactive
sns,DRSC07688,6493,,1704,,inactive
sns,DRSC07689,3513,9741,1044,2971,inactive
sns,DRSC07691,3227,7936,832,2524,inactive
sns,DRSC07692,4560,12503,363,1056,inactive
CR44003 + CG44002,DRSC00523,8630,,3600,,inactive
CR44003 + CG44002,DRSC00606,2324,7632,720,1651,inactive
how,DRSC16966,34675,,6970,,inactive
nxf4,DRSC12548,10007,,3266,,inactive
Polr3F,DRSC15785,37140,,5794,,inactive

Next part; the last 3 above are carried over.
predicted target,dsRNA,"firefly reporter light, replicate 1","firefly reporter light, replicate 2","Renilla control light, replicate 1","Renilla control light, replicate 2",Outcome
how,DRSC16966,34675,,6970,,inactive
nxf4,DRSC12548,10007,,3266,,inactive
Polr3F,DRSC15785,37140,,5794,,inactive
CG15818,DRSC02505,14705,,6224,,inactive
CG6654,DRSC16084,5908,,2304,,inactive
shams,DRSC16590,17693,,13211,,inactive
CG14082,DRSC10086,19149,,7540,,inactive
Ns4,DRSC03199,11842,,3202,,inactive
Zaf1,DRSC16121,13939,,3628,,inactive
CG4377,DRSC04467,14445,,3851,,inactive
PGAP3,DRSC04989,9834,,3106,,inactive
Or65b,DRSC08809,3281,,364,,inactive
sba,DRSC13643,3829,,752,,inactive
sba,DRSC17050,10790,,9975,,inactive
Trap1,DRSC05019,16705,,6711,,inactive
Fit2,DRSC10908,3627,,1443,,inactive
